# According to PubChem BioAssay AID652058 (Broad Institute, 2013):
# Among all 1,200 compounds or so, about 870 (72%) were called active. Not shown: some 3% with an inconclusive outcome.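 How the source made its calls: active means every test run fits a falling curve whose half-maximal concentration is at most twice the top valid dose; inconclusive means runs disagree, or flat 30 to 70% inhibition, or poor fit; inactive means every run inactive: flat, rising or weaker potency.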 So high a share suggests a set chosen from earlier hits. The entries are a selection whose mix differs from that of the whole data set. Results with a measured potency or affinity are listed apart.
# Assay: ZM109 Env clade C HIV-1 fusion inhibitors, dose response, HeLa effector, CEM target cells, luciferase, cherry-pick (AID 652058);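 further: 0% = neutral control wells and -100% = maraviroc 300 nM wells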
# Conditions: HeLa Env/CEM cell fusion, 16-24 h; at 35 µM (top of the series)
row,Structure (SMILES),"activity change, negative = inhibition"
1,O=C(Nc1cccc(OC(=O)N2CCOCC2)c1)N1CCOCC1,inactive: 16%
2,CCC(=NCCc1c[nH]c2ccccc12)c1c(O)n(C)c(=O)n(C)c1=O,inactive: -28.9%
3,O=C1NC2C(=CC(O)C(O)C2O)c2cc3c(cc21)OCO3 (centres undefined),inactive: -105%
4,CCC(=NCc1ccc(F)cc1)c1c(O)n(C)c(=O)n(C)c1=O,inactive: -12.8%
